No constants are given. Whether binding was seen depends on the method and setting. Binding seen in cells or lysates may run through a third protein. These calls come from enrichment with a bait or labelling near it, and not all partners need be listed.
Biological target: Full-length ACVRL1-Flag (Activin A receptor-like type 1) (UniProt P37023)
Experiment: affinity purification with mass spectrometry; HCT116 cells transfected with ACVRL1-Flag or vector-Flag (pENTER); IP with anti-DYKDDDDK magnetic agarose, five washes with PBS, SDS-PAGE, LC-MS

Sequences of proteins named here, by UniProt entry; tags and fusion partners are left off. Residues count along the entry.
UniProt P37023, residues 22-503: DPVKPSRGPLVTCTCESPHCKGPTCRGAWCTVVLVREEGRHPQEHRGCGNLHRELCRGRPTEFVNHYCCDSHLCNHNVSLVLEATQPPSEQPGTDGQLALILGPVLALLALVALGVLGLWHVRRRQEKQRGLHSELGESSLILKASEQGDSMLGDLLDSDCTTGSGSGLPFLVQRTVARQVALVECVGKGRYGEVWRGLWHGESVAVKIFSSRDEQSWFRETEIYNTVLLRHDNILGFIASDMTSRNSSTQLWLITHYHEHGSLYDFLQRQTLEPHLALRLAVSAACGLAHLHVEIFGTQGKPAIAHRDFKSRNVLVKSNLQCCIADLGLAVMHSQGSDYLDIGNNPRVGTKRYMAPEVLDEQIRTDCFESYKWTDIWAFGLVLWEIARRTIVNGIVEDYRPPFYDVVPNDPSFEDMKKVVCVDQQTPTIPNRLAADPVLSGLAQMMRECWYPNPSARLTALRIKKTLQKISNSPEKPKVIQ

binding: binds
B1: Glutathione peroxidase 2 (GPX2), endogenous (enzyme, UniProt P18283 1-190)
chain: MAFIAKSFYDLSAISLDGEKVDFNTFRGRAVLIENVASLUGTTTRDFTQLNELQCRFPRRLVVLGFPCNQFGHQENCQNEEILNSLKYVRPGGGYQPTFTLVQKCEVNGQNEHPVFAYLKDKLPYPYDDPFSLMTDPKLIIWSPVRRSDVAWNFEKFLIGPEGEPFRRYSRTFPTINIEPDIKRLLKVAI

— article PMC10518977
